Measured values taken from article PMC11560011.
These are yes or no findings as the source states them, for the method shown. Binding seen in cells or lysates may run through a third protein. Here binding means that the protein was enriched with, or labelled near, the bait; the list need not be complete. Where a sequence is shown, tags or fusion partners need not be part of it.

B1: Rap/Ran GAP (EHI_197320) (protein, UniProt C4LVE8 1-573)
chain: MYSEGNIIINEKSIKWIEQMSMIETTDDGKYLGIFEDFLRHVDSKEFNEKLTLFNEGKGTKIVDKILKVCVEPNIPIENVSKIITCLAFITNNNFKTKEYLYEHNIIEGIENLLIQPEIVKIFEELFSTFEYERKVTTQLTSVQFVTSLLSGLLTLVTNCEDIQKEISEKGIIELLLQLLSNGKQAPNELMTIYGSIIAIIDSYIEKSIKLLPQNTINILKELIFEAQAKGIRIMAIKALTDISDLKLEDYRSIFDELITPIEKEIERINDEFIKQSLLLLFRSICNDEKIESYRFIPFLNSLIEMTQSPIKETMICAIEAINSIALRDDTLNILSNKVEDIVKRIQGIEGEGYSSLMLLLTNMGRTDETIRKYKTYKVTEQIIEYIKIHPHDERALLMSLSVINSISVLHENRDYLTFDLNIFEVLNDWYNVSTNQVIIFNIQQIISRLILNSSLRAEHFMNLPTAINSIIETAGYTVRLIKEKRTPQTSTREVRDVRVAYEATRILCNLINLKSEYANTIMKDPYVIYAILDLIHSHYQILKDEGNYALNRLKQYEIITDDDIKKAEASRI
B2: Proteasome regulatory subunit, putative (EHI_005870) (protein, UniProt C4M2M2 1-300)
chain: MPEATIIIIDTSDYMRNGDYTPSRMEAQIEAVQAITSGRLRKNPENHVGFIAAGSESKRILVTLTGDFGKILSGLHEAKIGGSSDFKQALLVAKLALANRVDKIYTQRIILFVGSPLNINSDEAQTMVNLLKKSNIALDIVSFGEVVDNAPVIELFPSQMGDDCTLVTVPAGPHILLDMISKTNIIMRDGGLNTFDPEFDPEYAAAIRASMGDVNGGTEFYDEDAALRAAIAASLADYENLQTTNVQESKKEEQKEMTMEEEIEEAIKMSLEDNAKSNQSKEEKKEENDDKKMEEDKKNK
B3: DUF2807 domain-containing protein (EHI_112850) (protein, UniProt C4M9M4 1-396)
chain: MTPFIGEEVANLIRYCDDIQSLALVSKKYKEKIELHKEENYYNKEVFEDENLEVPPTTKVVRIKFGSGWYVRAFTTLAIGIKDLKLEKLIIELHTPLLVFFDKLLQFIPENTPIILEVHGLDEVIVEKYVINPQIKIGGFNSKINESLIQKKAFVLPERITTPSGVTRTYLSFEASVFDFYSAQLWKLYFPMNLKLKASGEHDKILKMKSFIFNSILITGKLKTIDLHAKNISIIRSYVPVDSCEELEVEQPFGFPEYVAKNKLKKLYIQYSKNITTIDLKAAESMNIVDIVCCDNLKEIKAENVLLMKVIDSPLQNIHLKTVQQLTLFGVNNVSVEGSIDDIQSDGKCFVNGTLSQTIKPIQSIDRKSVMIKFLPIYVVVLLIILGGIKLILEVH
B4: DUF5857 domain-containing protein (EHI_177500) (protein, UniProt C4LY53 1-214)
chain: MRFKTARKAGVYLQRGPIEYQSKKNSKRVTSVNEGDIVKPKVIEVCIPVSCENNEILDTNCVFNTSYKIACGYVSENKCTPISIKKPCKTKKNVIYISSKRKGKGTKIYNIKAFEDSHCLKPYQGFTENIINCKFNNLKTKKFGCNPENEISVGGICECKNCRTENIKTNIKSNDQLKIKRSEIKFGYNPWFCFFIPGLVVIVVVYFFTHKKPY
B5: Isopentenyl phosphate kinase (EHI_178490) (enzyme, UniProt C4LUR5 1-259)
chain: MNSIPNLIILKIGGSYLTEKNRADGPPILENIHMFSKCLAQFIHSHPKQPIILAHGAGSFGHIPAATYHLAEGFHKTGVIECEMAMQELSSIIVNSLIKEGISAIPFHPFNFVVTENKRIVDMYLQPLQMLVNQGVIPVVHGDVAMDIMQGSCILSADQLVPELAIRFGCHRIGFICNSPVLNDKREVIPLINEQNYESIKTFLHGCKGIDVTGGMAGKINELMIAATKHNIQSYVFKGTKECLELFLEGNDVGTKICQ
B6: RasGAP (EHI_001910) (protein, UniProt C4M5K5 1-426)
chain: MSFFKAHYTYNPNGDKYKFDQLLFVRDSEFLRCYCAEFVKGKMAPECNTNARLLVEYFNVHGKLLDLMKEVAKREIETTNAETQVFRGNTSFTRLYGEYCHLCLLPYLRAVTKEVIQLLINEDTKLDPDALNSPELENHKESMDTFCKLAHMFGTKLVDCVHLLPSHFHQLLRFISVEVGNKKSVKSTPQNTFNLLFFIRTVFPVFHAPQHVMDTIQPPSPEMAKRLTAFSKTCQSLLNETTTSSSIPLDIANFMTSSASKLFEMFTHPRSGYMTEKSGLDFSLQANAHKNIVELVRSNIEPLTALMTRDVQALKDALKSEKNEDSVMTEMQQSLEFCSNTYSERLQAVEDEITDLNDEIEKYKAQLKAVQKAIEDEDELTAKLQEEINRLENDSPKANTPTASPRSSRRDSNSDAVLRDHSSEDI
B7: Rho small GTPase (EHI_070730) (protein, UniProt Q24816 1-194)
chain: MSEKPTSIKLVVVGDGAVGKTCLLISYSIRKFPEDYIPTVFDNYVVSLTAGTRQIQLALWDTAGQEEYDQLRPLSYSSASIFLICFSVTSSVSYDNVITKWHPEVIHFAPKVPIILVGTKLDTRNDPAIVKRLTEQGMTVINTAKGEELKNRIKAVKYIECSAKTSENLKTVFDEAVKTVLMNKPQQRSKCALL
B8: DH domain-containing protein (RhoGEF) (EHI_158230) (protein, UniProt C4M2E2 1-738)
chain: MQSIDQYLLPDVSLSSKELAIVTQLNTLISDPSSRENGLSFILKRISQPMFREFLLRVHPQLYTHLLKSSNDDFGTLQVSLFIVHALSIYPHFINLLVKYDITVFEDLKSLLQSRDDPSITAHTLEIVLNASTSIEDKTLLQSLIDPLLSFFRGNVQHRNLAGKCLCILLTCSANQISFVKQEGIYAILNILYSHVYDEQLLASAMLLQLIKTPNKELAVKLRKIVILNNVLQLIKPLISTGGQLTIRAWQISALLTLATGYEKRFIQSGIFFDAVELIGDQNDKIKETLPCALTVILAVTIDSNLLDVCRGFSLADRLRNCVEHLNQYEPSLRLVILNIIRNLAVDEGLREELQTVKIANYLKTSLNDNNSLEKARIEILTLLKENIEPTSGINIGRDSVEVKRFADMNMKKTQAKQIVEEIVTTEQEYCEHLKCVVEEIKPNFQLVLSDKEIYDIFSNIEDVSNYQQKFLKVLQERWEQQKEREWVEISDLFENYFCEEMKNIYKEYMTRCNQANDYYQTLKKESKKVRKVALDLGIKRIYIPTFLIYPIQRLPRYLLLLETLSKNVPENYEEHNKLLSVKDRANKIVNWLNEEIRKYENEVSLKQWTNKLELSPVNNRIFIAEFHQVMVKASKMVNVCSIILFNDIVIFLKRKKNKDKILNQINLIDLKVFEVEDEKTTFMLVFPSPTNNNEDQRYMLYLSNDDEMKAIFSTLKKAVNLAKTQKKNMISRSVSLI
B9: Rho GDI (EHI_147570) (protein, UniProt C4M6L6 1-175)
chain: MSAADIVKNEKDPSLVAYLKSLGIDPDYVPPKDDPRRVVISEFAVLFKEHDPVILKLNTEEDMEKAKKTPIIIKEGAEFKMRVTFRVQHQPVLGLRILNTVSKLGKQVASDEEMLGSYPPKNEFNALELPKNDWNEAPTGMLARGEYKSNVKFYDDDKVTHLQFDYLIKIAKDWD
B10: Ras family GTPase (EHI_004860) (protein, UniProt C4M081 1-183)
chain: MPQTHHFKIVLLGSGSVGKSAIATRYVKNTFIGRYDPTIEETFSKTIEIDGTTVQLEIYDTAGTEQFRTLQDLYMKEGDGFILVFSLVSVATFNDLSSIYGHINEVKNSMEKKFVPIVIAGNKCDLDNRTVTTEQAQEFANNNGCHFMETSAKTQKNINEMFEYLTRQLIEHLPAKKQKCLIL
B11: Ras GEF (EHI_079250) (protein, UniProt C4M7R6 1-474)
chain: MSMEYTEIKQIISEKDILYTIKSCFIGDSSTIEDRKVLMWNCFLALVLNIKGKIGRVTLENYDNFVNRNSSYFPFKNVTIAVVVFNSQDDSYKNIKNWHGEVSRYCGSYDILQTIIVGMFPDETYHQNLPENIQMAISSIPNSKFFYYYPSGTDEFRKVFFSTVVKIRELLFSDEKLNEIQSMKQKRTVVQKKIIAPQVTSTISSSMNRKLKLASRNEDELVILLKAIVLGDESVSNSCHRITQHILGLPEAIGDDIYEYVWIPQHLIQKENMTIRLRMDVYNHNIPSGKSYTPYFNTLISIIVFRYDDKESFKNVVNWYQETQRYSNLQSNHYFIVGCQYNDTEQIIKDQDTENLLNYISKQKEIQFFKVTGSNWDDLTNKFFSFVDDVCRIEFSKEFLEQCASLTKNTKHTLTLDNTQHTNDRNKQYRPFILDEENSNIERDEESGSLLGRERNEEPMEFEYSTDSCCCILF
B12: Rab-GAP TBC domain-containing protein (EHI_069260) (protein, UniProt C4LWL4 1-350)
chain: MSIKEELEKRMKVLQKKYPNSYVQKFLSSFTRQTTFEGNKSKIYDIIEDLKKGDKRKLYFDCSNGVPKELRAPVWYCMATERCSYEEIIQIKSKKLYMEYWSEAYECEIFDLNKKQARTIDVDVVRLFPEGYKEIFKHEEVRRRIRRIKRMYECHFPNPGYFQGMGDIVAVFFVIFSEYYINEFSIDNYLKTDNEILDTIECATYVLLIYMMKNIYCECKTIAGVKEFHPESLWREIVKFYTLKDKNFNIKYDEFIIKQQIYKILVCFFARDLNIHLTSVIYDGLICGTCCSEGKVFNGIIKLAIAFIEMIKQQGVDLGDLYSFNKESHKFFETITESKTSQLIAIAWYL

Target: T1, HA-EhRacM (EhRacM tagged with HA at the N-terminus) (Entamoeba histolytica) (UniProt C4M9S3)
T1 sequence: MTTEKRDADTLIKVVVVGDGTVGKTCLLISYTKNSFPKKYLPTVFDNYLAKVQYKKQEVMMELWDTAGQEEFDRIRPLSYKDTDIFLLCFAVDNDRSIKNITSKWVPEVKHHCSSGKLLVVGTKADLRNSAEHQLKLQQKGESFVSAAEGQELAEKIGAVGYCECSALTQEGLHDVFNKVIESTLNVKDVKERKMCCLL
Test: affinity purification with mass spectrometry; trophozoites cross-linked with DSP (RT, 30 min), lysed in 50 mM Tris-HCl pH 7.5, 150 mM NaCl, 1% Triton X-100; precleared with Protein G Sepharose; HA-tagged bait captured on anti-HA agarose (clone HA-7) at 4°C for 3.5 h, eluted with HA peptide …; compared with the pEhEx-HA mock strain

Binder	binding
B1	binds
B2	binds
B3	binds
B4	binds
B5	binds
B6	binds
B7	binds
B8	binds
B9	binds
B10	binds
B11	binds
B12	binds
